Results published in PubChem BioAssay AID248 (DTP/NCI, 2004).
The list is a part of this screen's results and no random one: it is rich in T/C values a quarter to a half above the control, in often repeated tests (any T/C) and in doses without a T/C. Further doses and runs are listed elsewhere. T/C is the treated group as % of the vehicle group. Some doses have a count of surviving animals in place of a T/C: the source files T/C as zero there, which appears to mark a toxic dose or a test without result, not a measured value. Some survivor counts are full or nearly so, which does not show that the dose was tolerated: the source hardly ever lists a survival T/C far under the control, and the zero likely stands for such cases as well. Counts of survivors are from the toxicity check (mostly the fifth day) where no day follows; animals may have died later. Schedules are NCI's codes, read here as Q, the interval in days (D) or hours (H), X, the number of doses. Where survival is the endpoint, this PubChem deposit counts one and a half times the control or more as active, and values a quarter to a half above the control carry no call in these data; other NCI protocols may use other cut-offs. Some T/C values carry the count of animals alive at the toxicity check (mostly the fifth day); without a count, all were alive then.

System: L1210 leukemia ip in BDF1 mice, survival T/C
Experiment: NCI In Vivo Anticancer Drug Screen. Data for tumor model L1210 Leukemia (intraperitoneal) in B6D2F1 (BDF1) mice
Settings: T/C endpoint: mean survival time, higher T/C = longer survival
[1] = dose: 50.0 mg/kg/injection, schedule: Q04DX003 (ip), vehicle: Klucel (hydroxypropylcellulose) (HPC)
[2] = dose: 100.0 mg/kg/injection, schedule: Q04DX003 (ip), vehicle: Klucel (hydroxypropylcellulose) (HPC)
[3] = dose: 200.0 mg/kg/injection, schedule: Q04DX003 (ip), vehicle: Klucel (hydroxypropylcellulose) (HPC)
[4] = dose: 400.0 mg/kg/injection, schedule: Q04DX003 (ip), vehicle: Klucel (hydroxypropylcellulose) (HPC)
[5] = dose: 100.0 mg/kg/injection, schedule: Q01DX009 (ip), vehicle: saline with Tween-80
[6] = dose: 400.0 mg/kg/injection, schedule: Q04DX003 (ip), vehicle: saline with Tween-80
[7] = dose: 400.0 mg/kg/injection, schedule: Q01DX009 (ip), vehicle: saline with Tween-80
[8] = dose: 200.0 mg/kg/injection, schedule: Q01DX009 (ip), vehicle: saline with Tween-80
[9] = dose: 400.0 mg/kg/injection, schedule: Q04DX002 (ip), vehicle: saline with Tween-80

Q: With `Oc1c(Cl)cc(N=Cc2ccc(N(CCCCl)CCCCl)cc2Cl)cc1Cl` as the compound, how does the survivor count [1] read?
A: 6 of 6

Q: And the survivor count [2]?
A: 6 of 6

Q: And the survivor count [3]?
A: 6 of 6

Q: What about the survivor count [4] of the same compound?
A: 6 of 6

Q: What does the source list for `Cc1c2cnccc2c(C)c2c1c1ccccc1n2C(C)C`?
A: T/C (dose: 125.0 mg/kg/injection, schedule: Q01DX009 (ip), vehicle: saline with Tween-80): 132 % of control; T/C (dose: 250.0 mg/kg/injection, schedule: Q01DX009 (ip), vehicle: saline with Tween-80): 144 % of control [5 of 6 alive]

Q: What does the source list for `CC1=NCCc2c1cc1c([nH]c3ccccc31)c2C`?
A: T/C (dose: 65.0 mg/kg/injection, schedule: Q01DX009 (ip), vehicle: other): 132 % of control; T/C (dose: 67.0 mg/kg/injection, schedule: Q01DX009 (ip), vehicle: saline with Tween-80): 134 % of control; T/C [5]: 130 % of control; T/C (dose: 140.0 mg/kg/injection, schedule: Q01DX009 (ip), vehicle: other): 141 % of control [5 of 6 alive]; survivor count (dose: 400.0 mg/kg/injection, schedule: Q04DX003 (ip), vehicle: acetone): 4 of 6; T/C [6]: 131 % of control; survivor count [6]: 5 of 6; survivor count (dose: 600.0 mg/kg/injection, schedule: Q04DX003 (ip), vehicle: saline with Tween-80): 0 of 6

Q: Which results are given for `C[n+]1ccccc1/C=C/c1ccc2c(c1)OCO2`?
A: survivor count (dose: 50.0 mg/kg/injection, schedule: Q01DX009 (ip), vehicle: Klucel (hydroxypropylcellulose) (HPC)): 6 of 6; survivor count [1]: 5 of 6; survivor count [2]: 0 of 6; survivor count [3]: 0 of 6; survivor count [4]: 0 of 6

Q: For `CC1CC(NC(=O)N(CCCl)N=O)CC(C)(C)C1` (stereo unspecified), which T/C (dose: 125.0 mg/kg/injection, schedule: Q01DX001 (ip), vehicle: other) is on record?
A: 136 % of control

Q: For `O=[N+]([O-])c1ccc2c(c1)c(-c1cc(Cl)cc(Cl)c1)nc1ccccc12`, which survivor count [7] is on record?
A: 6 of 6

Q: How did the survivor count [6] turn out when `CC(Cl)(Cl)CC(O)(C(F)(F)F)C(F)(F)F` was run?
A: 4 of 6

Q: For `C/C=C/C[P+](Cc1ccccc1)(c1ccccc1)c1ccccc1`, which survivor count (dose: 6.25 mg/kg/injection, schedule: Q01DX009 (ip), vehicle: saline with Tween-80) is on record?
A: 1 of 3

Q: And the survivor count (dose: 25.0 mg/kg/injection, schedule: Q01DX009 (ip), vehicle: saline with Tween-80)?
A: 0 of 3

Q: What about the survivor count (dose: 50.0 mg/kg/injection, schedule: Q01DX009 (ip), vehicle: saline with Tween-80) of the same compound?
A: 0 of 3

Q: And the survivor count [5]?
A: 0 of 3

Q: And the survivor count [8]?
A: 0 of 3

Q: How did the survivor count (dose: 300.0 mg/kg/injection, schedule: Q04DX002 (ip), vehicle: saline with Tween-80) turn out when `CCC(C)(OC(=O)c1ccc([N+](=O)[O-])cc1)C(C)C` (stereo unspecified) was run?
A: 3 of 3

Q: `Cc1nn(C)c(C#N)c1[N+](=O)[O-]` was tested. Which survivor count [4] did it give?
A: 6 of 6

Q: What does the source list for `O/N=C1\C(Cl)C2CC1C1C=CCC12` (stereo unspecified)?
A: survivor count [1]: 0 of 6; survivor count [2]: 0 of 6

Q: For `N#CC1=C(C#N)C(=O)C(c2ccccc2)=C(c2ccccc2)C1=O`, which survivor count (dose: 40.0 mg/kg/injection, schedule: Q01DX001 (ip), vehicle: saline) is on record?
A: 1 of 4

Q: What about the survivor count (dose: 80.0 mg/kg/injection, schedule: Q01DX001 (ip), vehicle: saline) of the same compound?
A: 0 of 4

Q: What about the survivor count (dose: 100.0 mg/kg/injection, schedule: Q01DX001 (ip), vehicle: saline) of the same compound?
A: 0 of 4

Q: And the survivor count (dose: 200.0 mg/kg/injection, schedule: Q01DX001 (ip), vehicle: saline)?
A: 0 of 4

Q: What about the survivor count (dose: 400.0 mg/kg/injection, schedule: Q01DX001 (ip), vehicle: saline) of the same compound?
A: 0 of 4

Q: For `NC(=S)N=Nc1c(O)n(C2OC(CO)C(O)C(O)C2O)c2ccccc12` (stereo unspecified), which survivor count (dose: 200.0 mg/kg/injection, schedule: Q01DX005 (ip), vehicle: saline) is on record?
A: 3 of 3

Q: `CC1CC(NC(=O)CC#N)CC(C)(C)C1` (stereo unspecified) was tested. Which survivor count [9] did it give?
A: 0 of 3

Q: Which survivor count (dose: 75.0 mg/kg/injection, schedule: Q01DX001 (ip), vehicle: saline) does the source give for `COC(=O)CCCN1CC2C=C(C#N)C1C(C(=O)OC)C2` (stereo unspecified) here?
A: 6 of 6

Q: `CC1(C)COC(Cc2ccccc2)=N1` was tested. Which survivor count (dose: 400.0 mg/kg/injection, schedule: Q04DX003 (ip), vehicle: saline) did it give?
A: 0 of 6

Q: For `O=c1[nH]cnc2nc(SCc3cccc([N+](=O)[O-])c3)[nH]c12`, which survivor count (dose: 75.0 mg/kg/injection, schedule: Q01DX001 (ip), vehicle: other) is on record?
A: 6 of 6

Q: Which survivor count (dose: 150.0 mg/kg/injection, schedule: Q01DX001 (ip), vehicle: Klucel (hydroxypropylcellulose) (HPC)) does the source give for `OCCCCCCCCCCC[n+]1ccccc1Cc1ccccc1` here?
A: 0 of 6

Q: And the survivor count (dose: 300.0 mg/kg/injection, schedule: Q01DX001 (ip), vehicle: Klucel (hydroxypropylcellulose) (HPC))?
A: 0 of 6

Q: What does the source list for `CCCCNC(C)(C)C(SC(C)=O)c1ccc(Cl)cc1` (stereo unspecified)?
A: survivor count [8]: 4 of 6; survivor count [7]: 0 of 6

Q: Which survivor count [6] does the source give for `CCN(CC)C(=O)C1C2C=CC(C2)C1C(=O)N(CC)CC` (stereo unspecified) here?
A: 0 of 3

Q: How did the survivor count (dose: 266.0 mg/kg/injection, schedule: Q01DX001 (ip), vehicle: carboxymethylcellulose (CMC)) turn out when `CCN(CCCl)Cc1ccc(-c2c3ccccc3cc3c2ccc2ccccc23)cc1` was run?
A: 2 of 6

Q: And the survivor count (dose: 400.0 mg/kg/injection, schedule: Q01DX001 (ip), vehicle: carboxymethylcellulose (CMC))?
A: 3 of 6

Q: And the survivor count (dose: 600.0 mg/kg/injection, schedule: Q01DX001 (ip), vehicle: carboxymethylcellulose (CMC))?
A: 1 of 6

Q: What does the source list for `COc1cc(OC)c(N=CN(C)C)cc1Cl`?
A: survivor count (dose: 150.0 mg/kg/injection, schedule: Q01DX009 (ip), vehicle: Klucel (hydroxypropylcellulose) (HPC)): 0 of 6; survivor count (dose: 300.0 mg/kg/injection, schedule: Q01DX009 (ip), vehicle: Klucel (hydroxypropylcellulose) (HPC)): 0 of 6

Q: For `CC1(C)C(OC=O)C(C)(C)C1OC=O` (stereo unspecified), which survivor count [4] is on record?
A: 5 of 6

Q: For `CC(C)=CCc1c2c(c3occ(-c4ccc(O)cc4)c(=O)c3c1O)C=CC(C)(C)O2`, which survivor count [3] is on record?
A: 6 of 6

Q: For `CC(=O)C(CCC#N)C(C)=O.CC(=O)C(CCC#N)C(C)=O.[Cu]`, which survivor count [1] is on record?
A: 2 of 6

Q: And the survivor count [2]?
A: 0 of 6

Q: What about the survivor count [3] of the same compound?
A: 0 of 6

Q: What about the survivor count [4] of the same compound?
A: 1 of 6

Q: With `C=CC1(C)C=C2CCC3C(C)(C(=O)O)CCCC3(C)C2CC1` (stereo unspecified) as the compound, how does the survivor count [9] read?
A: 0 of 3

Q: Which survivor count (dose: 50.0 mg/kg/injection, schedule: Q01DX015 (ip), vehicle: methylcellulose (MC)) does the source give for `CCCCNC(=O)N(CC)C(=NCC)c1ccc(NC(=O)c2ccc(C(=O)Nc3ccc(C(=NCC)N(CC)C(=O)NCCCC)cc3)cc2)cc1` here?
A: 0 of 6

Q: What about the survivor count (dose: 100.0 mg/kg/injection, schedule: Q01DX015 (ip), vehicle: methylcellulose (MC)) of the same compound?
A: 0 of 6

Q: And the survivor count (dose: 200.0 mg/kg/injection, schedule: Q01DX015 (ip), vehicle: methylcellulose (MC))?
A: 0 of 6

Q: And the survivor count (dose: 400.0 mg/kg/injection, schedule: Q01DX015 (ip), vehicle: methylcellulose (MC))?
A: 0 of 6

Q: With `S=c1c2ccccc2nc2n1CCS2` as the compound, how does the survivor count [5] read?
A: 6 of 6

Q: With `NCCN1Cc2ccccc2CCc2ccccc2C1` as the compound, how does the survivor count (dose: 100.0 mg/kg/injection, schedule: Q01DX009 (ip), vehicle: Klucel (hydroxypropylcellulose) (HPC)) read?
A: 2 of 6

Q: And the survivor count (dose: 200.0 mg/kg/injection, schedule: Q01DX009 (ip), vehicle: Klucel (hydroxypropylcellulose) (HPC))?
A: 0 of 6

Q: What about the survivor count (dose: 400.0 mg/kg/injection, schedule: Q01DX009 (ip), vehicle: Klucel (hydroxypropylcellulose) (HPC)) of the same compound?
A: 0 of 6
